# The full ranking holds about 33,000 sequences; the median of “E-score (-0.5 to 0.5)” is about -0.015, and the highest 2% start at about 0.3. The list shows a part of the results.
# Molecular target: T1, Abf1 (UniProt P14164)
# T1 sequence: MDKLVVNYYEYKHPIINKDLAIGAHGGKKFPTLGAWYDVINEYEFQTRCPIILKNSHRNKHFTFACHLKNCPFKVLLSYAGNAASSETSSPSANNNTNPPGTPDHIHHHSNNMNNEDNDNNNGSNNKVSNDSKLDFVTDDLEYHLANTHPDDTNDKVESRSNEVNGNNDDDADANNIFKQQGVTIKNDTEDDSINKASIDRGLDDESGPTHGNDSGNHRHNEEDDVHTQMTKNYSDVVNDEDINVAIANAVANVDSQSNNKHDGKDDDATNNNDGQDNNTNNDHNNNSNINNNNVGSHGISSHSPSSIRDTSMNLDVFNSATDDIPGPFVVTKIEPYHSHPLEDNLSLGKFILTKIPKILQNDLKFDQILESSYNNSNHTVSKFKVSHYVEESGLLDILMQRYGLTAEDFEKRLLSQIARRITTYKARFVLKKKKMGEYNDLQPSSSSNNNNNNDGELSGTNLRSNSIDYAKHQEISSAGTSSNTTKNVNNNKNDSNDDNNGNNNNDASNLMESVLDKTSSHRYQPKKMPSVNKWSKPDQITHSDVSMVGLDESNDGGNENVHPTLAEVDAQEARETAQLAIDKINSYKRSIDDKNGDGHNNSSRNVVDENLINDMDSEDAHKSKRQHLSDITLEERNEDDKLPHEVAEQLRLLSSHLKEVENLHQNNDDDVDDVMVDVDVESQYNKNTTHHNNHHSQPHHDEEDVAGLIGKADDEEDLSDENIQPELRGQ
# Experiment: PBM E-score (8-mer binding enrichment) (E-score (-0.5 to 0.5)); higher = stronger / more preferred TF binding
# Details: protein concentration: 200 nM; construct: GST-full length
# In short: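 Full-length yeast transcription factors or their DNA-binding domains, GST-tagged and expressed with PURExpress, were applied at about 100-200 nM to universal all-10-mer Agilent arrays. These arrays had been made double-stranded by primer extension on fresh or once-stripped slides. Detection used fluorescent anti-GST, normalisation used masliner, and E-scores for ungapped eight-base words pooled with reverse complements came from the Universal PBM Analysis Suite.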
row,Sequence,PBM E-score
1,CTGTAAAG,-0.0691
2,CATGCGAA,0.0115
3,CCCTCATC,-0.182
4,ACGCCAAT,0.0806
5,CCTCGCAG,-0.189
6,AATAGACG,0.058
7,ATTGTGAG,-0.0226
8,CTTAGGTC,-0.153
9,AGCATACG,0.0119
10,ATCCCACG,0.0512
11,CGCTCAGA,-0.146
12,CCTTCGGA,-0.111
13,AGCGCATA,0.103
14,AACTGCCA,-0.0469
15,ACGTCATA,0.222
16,CCTATAGC,-0.24
17,CCGTCAGC,0.103
18,ACCATCAA,-0.162
19,CTAATATC,0.284
20,GCCAGATA,-0.143
21,CTCACTAA,0.129
22,CATGGGAC,-0.0164
23,GCACAGTA,0.0727
24,CGACTTTC,-0.0316
25,AACGGTCA,0.0956

row,Sequence,PBM E-score
1,GCAGGGCC,-0.2
2,CGCCGCTA,-0.174
3,AGTGCCCA,-0.0527
4,TAAAGCTA,-0.0625
5,GATGGCAA,0.00551
6,GGACGGAC,-0.0138
7,AGTCCTTG,0.136
8,AATACCGG,-0.152
9,ATCGTATC,0.242
10,GCAAGAAA,-0.0809
11,CCGAGACG,0.0483
12,CGCAAGAA,0.172
13,AACTGCCG,0.132
14,CCGGATTA,-0.0556
15,AGCGGACC,-0.0104
16,GGTGCTAC,-0.1
17,GCACATGC,-0.137
18,GATTAGAC,0.00825
19,GAGTAAGC,-0.0833
20,ATACTCAC,0.0974
21,ATGAGGGG,-0.228
22,CGTACATC,0.134
23,CAGCTTAG,-0.147
24,ATTTGCAC,0.0183
25,ACCCGCAT,0.125

row,Sequence,PBM E-score
1,ATTTTGTG,0.0301
2,GGCGTCAA,-0.206
3,CCACAGCG,0.00589
4,GCCCGCCA,-0.251
5,ACACATCG,-0.0438
6,CATAAACG,0.22
7,CTGTCGCA,-0.127
8,ATAACGGC,0.23
9,ACCAGAAT,0.0249
10,ATTGCTTA,0.0839
11,ACATGAAG,0.00147
12,CCTTGATC,-0.0146
13,CGCCCCAG,-0.19
14,GAGCATGC,-0.243
15,AGCGGCGG,-0.112
16,AGCATATA,-0.0274
17,TTATATAA,0.184
18,CACAATGG,-0.0344
19,CATCATTA,0.294
20,AGATACAA,0.129
21,CTCTACAA,-0.0494
22,GGGTCAGA,-0.137
23,AACCGCAC,-0.0655
24,CACCGAGA,0.0036
25,CCAACTGC,-0.222

# For reference, some entries already given.
row,Sequence,PBM E-score
15,ACGTCATA,0.222
16,CCTATAGC,-0.24
17,CCGTCAGC,0.103
18,ACCATCAA,-0.162
19,CTAATATC,0.284

# Individual results from the list:
# Entry of ATTGCTTA under PBM E-score: 0.0839
# Entry of CGCCCCAG under PBM E-score: -0.19
# Entry of CATAAACG under PBM E-score: 0.22

# Carrying on:

row,Sequence,PBM E-score
1,ACAGCGGA,-0.058
2,AAGCGGGA,0.0301
3,CAGCACAA,0.0664
4,GTTGATTA,0.124
5,CTAATCAG,0.0367
6,ACGGGGCT,-0.00846
7,GAGGTAAC,0.109
8,TATCTACA,0.128
9,CCGCCATC,-0.26
10,ACAAGAAC,0.289
11,AGAACTTG,-0.00394
12,AATGGCTG,-0.181
13,GTAGCTTA,0.19
14,CATCCTCC,-0.127
15,CGCGGCCA,-0.171
16,CCGCATTC,0.00443
17,ACCACTCA,-0.0784
18,CCTCGCCC,-0.0351
19,ATTACTCG,0.0809
20,ATACTGTG,0.00537
21,ATCATTAC,0.262
22,CAACCCTA,-0.17
23,ATAGTCGC,0.0895
24,CGTGGCTC,-0.148
25,ATGTGAGA,0.0123

row,Sequence,PBM E-score
1,CCGGCCTA,-0.129
2,CTTCTATC,0.0251
3,AAGCCAGC,-0.221
4,TCTGTCCA,-0.22
5,AGTCCCAT,-0.0851
6,AAATCTCG,0.0579
7,TCAGGGGA,-0.0864
8,CAGGAGTA,-0.0725
9,AGAGTTTC,-0.069
10,GAACCCTA,0.00224
11,CGGATTTC,-0.0185
12,CCCCGCAA,-0.0817
13,CCACCTTC,-0.187
14,GGTTCGAA,0.114
15,CAGTGAGG,-0.166
16,CCTCTCAA,-0.0801
17,CACTTGCG,-0.0875
18,ACAAGCAG,-0.169
19,AGGCGTAG,-0.237
20,CGCTCGGC,-0.06
21,CCCGACCA,-0.153
22,CAGTGGAG,0.062
23,CGGCTTCA,0.0882
24,ATGTGCGC,-0.0469
25,GTCCGCAC,-0.118

row,Sequence,PBM E-score
1,AATAGAAA,0.02
2,CACAAAGC,-0.199
3,CAATTGCA,-0.204
4,GATGAGCA,0.153
5,ACGGACGT,0.105
6,TGCGGAAA,-0.16
7,CACTAGAG,0.0171
8,AGTCGCGG,-0.0974
9,TCTCGAAA,0.136
10,GGTGGAAC,-0.155
11,CGGGCTAG,-0.12
12,AACAGCGG,-0.129
13,ACGTTACA,0.179
14,AAGTTAAT,0.248
15,AGCTTTGC,-0.222
16,AAGTCCCG,-0.0454
17,AAATTGTC,0.18
18,ACGAGAAA,0.124
19,ACTGTTCC,-0.0449
20,GAGCCTCC,-0.0985
21,TAGATGCA,-0.0438
22,ACATATCC,0.236
23,GATTGAAC,0.0154
24,ACGATATC,0.321
25,CCCTTCCA,-0.325

row,Sequence,PBM E-score
1,AATTGTTA,0.0695
2,CAATAAAC,0.0652
3,AACCCCGC,-0.129
4,AATGCTCG,0.101
5,CAAAAACA,0.0687
6,ACCCAACT,-0.129
7,ATTGGTAC,-0.145
8,TACTCAAA,0.136
9,CCGTGTTC,0.146
10,CCAGCCTA,-0.199
11,ACCGATCA,0.196
12,ACTTTGCA,0.0351
13,AACGAATC,0.219
14,TACATGCA,0.0369
15,TAGAGCCA,-0.171
16,CATGAGTC,0.074
17,AATGAATC,-0.0608
18,CACTAATC,0.125
19,AGCTGCTA,-0.0858
20,GCTACGAC,-0.0162
21,CATTTTTA,0.111
22,CACTTCTG,-0.118
